Laboratory results as given in the supplement of paper PMC10849652.
The list shows a part of the results. Residues, ends and D or L forms follow the SMILES beside them. *: point of attachment. Cbz = O=C(OCc1ccccc1)*

Protein sequences, listed by entry. Tags and fused reporters are not part of them. Lines headed by an entry give the natural chain unless they say otherwise; changes in a name come on top.
UniProt P03973: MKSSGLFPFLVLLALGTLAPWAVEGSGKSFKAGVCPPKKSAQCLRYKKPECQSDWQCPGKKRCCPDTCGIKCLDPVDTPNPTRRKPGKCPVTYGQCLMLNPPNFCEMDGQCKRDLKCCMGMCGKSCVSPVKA
UniProt Q92540: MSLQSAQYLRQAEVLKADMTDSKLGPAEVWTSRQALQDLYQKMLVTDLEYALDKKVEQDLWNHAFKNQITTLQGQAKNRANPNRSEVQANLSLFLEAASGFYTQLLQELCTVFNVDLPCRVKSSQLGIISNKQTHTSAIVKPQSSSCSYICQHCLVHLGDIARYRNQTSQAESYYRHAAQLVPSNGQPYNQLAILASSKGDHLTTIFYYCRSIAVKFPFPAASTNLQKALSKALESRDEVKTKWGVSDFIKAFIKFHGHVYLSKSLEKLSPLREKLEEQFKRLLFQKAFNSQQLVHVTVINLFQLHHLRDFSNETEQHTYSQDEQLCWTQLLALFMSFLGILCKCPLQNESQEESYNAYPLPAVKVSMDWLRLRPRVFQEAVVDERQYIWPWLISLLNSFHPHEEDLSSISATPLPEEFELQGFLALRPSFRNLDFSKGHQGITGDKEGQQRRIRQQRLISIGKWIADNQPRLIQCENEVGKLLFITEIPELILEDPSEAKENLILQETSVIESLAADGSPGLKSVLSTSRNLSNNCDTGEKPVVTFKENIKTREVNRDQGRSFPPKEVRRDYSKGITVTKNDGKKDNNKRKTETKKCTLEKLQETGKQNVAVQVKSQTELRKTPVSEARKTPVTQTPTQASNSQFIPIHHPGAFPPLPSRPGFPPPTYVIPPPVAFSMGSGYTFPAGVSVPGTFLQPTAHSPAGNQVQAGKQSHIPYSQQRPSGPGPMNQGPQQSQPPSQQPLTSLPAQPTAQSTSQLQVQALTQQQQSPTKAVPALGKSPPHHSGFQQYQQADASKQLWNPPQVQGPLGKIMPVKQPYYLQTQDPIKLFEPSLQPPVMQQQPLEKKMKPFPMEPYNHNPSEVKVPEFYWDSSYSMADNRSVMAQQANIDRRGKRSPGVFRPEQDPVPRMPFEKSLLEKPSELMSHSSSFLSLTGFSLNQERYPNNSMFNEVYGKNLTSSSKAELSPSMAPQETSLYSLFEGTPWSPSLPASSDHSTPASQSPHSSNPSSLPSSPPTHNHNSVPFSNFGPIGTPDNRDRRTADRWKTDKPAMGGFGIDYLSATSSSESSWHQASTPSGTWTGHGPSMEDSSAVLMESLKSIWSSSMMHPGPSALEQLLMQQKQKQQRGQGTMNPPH
UniProt Q5VWJ9: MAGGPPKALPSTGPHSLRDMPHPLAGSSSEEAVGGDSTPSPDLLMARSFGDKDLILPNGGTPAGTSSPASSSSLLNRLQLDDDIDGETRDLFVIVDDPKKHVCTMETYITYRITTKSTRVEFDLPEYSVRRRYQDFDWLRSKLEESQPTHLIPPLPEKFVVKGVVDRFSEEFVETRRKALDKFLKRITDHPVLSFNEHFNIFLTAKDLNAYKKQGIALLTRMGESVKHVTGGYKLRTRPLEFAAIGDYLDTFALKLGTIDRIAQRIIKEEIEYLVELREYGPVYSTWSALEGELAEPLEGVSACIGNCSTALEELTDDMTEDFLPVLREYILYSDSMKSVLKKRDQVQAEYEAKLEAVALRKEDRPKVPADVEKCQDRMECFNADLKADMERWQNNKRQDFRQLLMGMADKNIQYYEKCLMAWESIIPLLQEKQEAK
UniProt Q9NZC9: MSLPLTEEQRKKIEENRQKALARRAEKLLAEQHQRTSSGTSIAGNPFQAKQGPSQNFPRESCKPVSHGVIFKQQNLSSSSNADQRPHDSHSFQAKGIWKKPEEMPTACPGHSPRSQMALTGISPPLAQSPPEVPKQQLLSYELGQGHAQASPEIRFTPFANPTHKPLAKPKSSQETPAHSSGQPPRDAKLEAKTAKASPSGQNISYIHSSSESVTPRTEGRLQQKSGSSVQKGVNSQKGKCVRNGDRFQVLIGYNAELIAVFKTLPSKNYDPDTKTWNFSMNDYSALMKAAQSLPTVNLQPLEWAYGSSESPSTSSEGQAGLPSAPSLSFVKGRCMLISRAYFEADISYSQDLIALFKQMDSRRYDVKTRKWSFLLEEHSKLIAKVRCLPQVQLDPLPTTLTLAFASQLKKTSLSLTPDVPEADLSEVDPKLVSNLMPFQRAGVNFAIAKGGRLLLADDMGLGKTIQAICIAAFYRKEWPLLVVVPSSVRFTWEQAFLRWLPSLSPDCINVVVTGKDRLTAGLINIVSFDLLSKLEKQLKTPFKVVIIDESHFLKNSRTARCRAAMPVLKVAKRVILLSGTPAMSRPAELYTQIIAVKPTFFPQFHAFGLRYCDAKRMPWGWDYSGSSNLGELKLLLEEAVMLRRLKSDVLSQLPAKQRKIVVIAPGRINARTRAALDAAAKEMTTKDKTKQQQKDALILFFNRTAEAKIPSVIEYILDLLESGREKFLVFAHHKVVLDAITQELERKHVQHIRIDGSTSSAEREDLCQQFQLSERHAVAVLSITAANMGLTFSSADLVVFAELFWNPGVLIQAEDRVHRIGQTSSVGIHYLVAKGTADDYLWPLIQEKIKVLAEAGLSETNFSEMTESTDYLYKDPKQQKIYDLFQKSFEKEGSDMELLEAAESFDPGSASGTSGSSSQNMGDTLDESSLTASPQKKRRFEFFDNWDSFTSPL
UniProt Q9NRH2: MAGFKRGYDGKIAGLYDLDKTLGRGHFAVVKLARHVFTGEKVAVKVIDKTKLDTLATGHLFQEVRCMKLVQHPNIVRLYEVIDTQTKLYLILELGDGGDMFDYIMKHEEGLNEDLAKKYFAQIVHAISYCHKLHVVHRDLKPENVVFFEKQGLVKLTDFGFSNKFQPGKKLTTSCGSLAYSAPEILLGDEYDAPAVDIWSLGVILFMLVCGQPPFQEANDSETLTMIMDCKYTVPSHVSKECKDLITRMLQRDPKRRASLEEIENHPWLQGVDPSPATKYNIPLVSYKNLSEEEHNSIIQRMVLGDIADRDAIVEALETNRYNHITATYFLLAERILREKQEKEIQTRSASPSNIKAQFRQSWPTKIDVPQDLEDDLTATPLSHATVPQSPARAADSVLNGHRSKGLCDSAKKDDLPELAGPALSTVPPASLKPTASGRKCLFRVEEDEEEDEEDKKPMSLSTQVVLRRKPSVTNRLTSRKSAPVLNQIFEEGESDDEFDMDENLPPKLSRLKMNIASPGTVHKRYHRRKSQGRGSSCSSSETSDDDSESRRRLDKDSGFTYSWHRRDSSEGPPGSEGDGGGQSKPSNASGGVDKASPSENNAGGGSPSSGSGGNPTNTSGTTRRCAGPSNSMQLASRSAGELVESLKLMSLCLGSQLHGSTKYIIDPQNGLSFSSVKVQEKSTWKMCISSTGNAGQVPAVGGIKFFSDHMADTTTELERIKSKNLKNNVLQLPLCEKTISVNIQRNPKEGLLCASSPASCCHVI
UniProt P35712: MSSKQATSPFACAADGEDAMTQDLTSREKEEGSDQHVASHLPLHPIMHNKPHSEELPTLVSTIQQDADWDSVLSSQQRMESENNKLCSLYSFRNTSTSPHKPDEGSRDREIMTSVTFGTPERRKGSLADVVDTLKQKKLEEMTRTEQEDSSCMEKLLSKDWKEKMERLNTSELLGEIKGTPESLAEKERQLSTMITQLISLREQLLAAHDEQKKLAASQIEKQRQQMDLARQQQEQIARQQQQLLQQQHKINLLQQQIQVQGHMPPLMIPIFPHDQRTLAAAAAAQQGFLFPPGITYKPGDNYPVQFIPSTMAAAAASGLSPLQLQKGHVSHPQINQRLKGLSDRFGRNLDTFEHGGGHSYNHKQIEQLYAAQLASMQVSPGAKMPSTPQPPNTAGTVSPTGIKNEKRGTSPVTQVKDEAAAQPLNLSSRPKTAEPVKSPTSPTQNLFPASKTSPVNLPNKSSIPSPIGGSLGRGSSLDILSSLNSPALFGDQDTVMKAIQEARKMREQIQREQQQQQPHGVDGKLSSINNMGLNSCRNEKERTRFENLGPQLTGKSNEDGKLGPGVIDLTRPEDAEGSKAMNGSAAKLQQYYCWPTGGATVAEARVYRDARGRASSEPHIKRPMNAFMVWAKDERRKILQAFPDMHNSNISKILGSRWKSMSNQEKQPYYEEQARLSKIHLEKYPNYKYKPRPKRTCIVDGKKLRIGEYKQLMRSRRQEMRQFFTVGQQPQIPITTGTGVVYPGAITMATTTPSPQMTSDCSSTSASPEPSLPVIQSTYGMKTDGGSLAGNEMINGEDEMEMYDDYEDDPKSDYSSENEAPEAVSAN
UniProt Q92581: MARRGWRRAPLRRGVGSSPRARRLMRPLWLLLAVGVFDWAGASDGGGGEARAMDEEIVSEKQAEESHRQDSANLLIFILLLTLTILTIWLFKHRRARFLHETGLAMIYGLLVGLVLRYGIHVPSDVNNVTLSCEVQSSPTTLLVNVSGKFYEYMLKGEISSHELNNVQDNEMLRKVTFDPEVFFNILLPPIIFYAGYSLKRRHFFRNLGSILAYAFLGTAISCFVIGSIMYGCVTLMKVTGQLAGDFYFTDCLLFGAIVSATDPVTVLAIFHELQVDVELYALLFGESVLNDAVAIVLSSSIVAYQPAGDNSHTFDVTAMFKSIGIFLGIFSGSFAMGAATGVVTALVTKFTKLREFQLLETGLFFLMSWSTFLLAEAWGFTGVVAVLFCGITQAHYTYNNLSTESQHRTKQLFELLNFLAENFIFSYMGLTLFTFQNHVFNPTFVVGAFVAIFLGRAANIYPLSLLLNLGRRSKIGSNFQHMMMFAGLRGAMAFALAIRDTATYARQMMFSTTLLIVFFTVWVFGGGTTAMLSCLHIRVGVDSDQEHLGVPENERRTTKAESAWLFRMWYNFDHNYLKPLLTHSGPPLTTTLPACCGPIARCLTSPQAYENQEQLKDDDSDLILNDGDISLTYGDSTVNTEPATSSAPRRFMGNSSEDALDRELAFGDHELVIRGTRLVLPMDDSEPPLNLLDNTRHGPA
UniProt O60504: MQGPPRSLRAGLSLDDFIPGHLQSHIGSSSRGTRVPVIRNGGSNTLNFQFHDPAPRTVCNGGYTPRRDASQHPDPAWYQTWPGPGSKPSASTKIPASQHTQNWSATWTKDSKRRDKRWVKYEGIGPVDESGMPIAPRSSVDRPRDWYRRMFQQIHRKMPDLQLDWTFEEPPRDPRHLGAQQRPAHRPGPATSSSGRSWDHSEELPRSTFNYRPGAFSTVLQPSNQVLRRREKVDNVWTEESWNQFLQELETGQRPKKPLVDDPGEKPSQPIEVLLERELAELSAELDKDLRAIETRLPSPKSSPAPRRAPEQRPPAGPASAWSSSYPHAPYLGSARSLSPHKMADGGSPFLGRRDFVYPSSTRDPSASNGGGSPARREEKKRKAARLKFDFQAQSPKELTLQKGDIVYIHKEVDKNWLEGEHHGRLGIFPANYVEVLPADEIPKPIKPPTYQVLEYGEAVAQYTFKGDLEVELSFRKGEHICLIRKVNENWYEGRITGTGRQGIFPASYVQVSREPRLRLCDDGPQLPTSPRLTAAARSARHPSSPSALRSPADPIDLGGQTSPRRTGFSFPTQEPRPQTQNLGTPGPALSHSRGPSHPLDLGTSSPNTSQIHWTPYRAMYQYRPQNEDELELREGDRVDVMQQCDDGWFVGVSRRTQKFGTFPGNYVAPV
UniProt P53814: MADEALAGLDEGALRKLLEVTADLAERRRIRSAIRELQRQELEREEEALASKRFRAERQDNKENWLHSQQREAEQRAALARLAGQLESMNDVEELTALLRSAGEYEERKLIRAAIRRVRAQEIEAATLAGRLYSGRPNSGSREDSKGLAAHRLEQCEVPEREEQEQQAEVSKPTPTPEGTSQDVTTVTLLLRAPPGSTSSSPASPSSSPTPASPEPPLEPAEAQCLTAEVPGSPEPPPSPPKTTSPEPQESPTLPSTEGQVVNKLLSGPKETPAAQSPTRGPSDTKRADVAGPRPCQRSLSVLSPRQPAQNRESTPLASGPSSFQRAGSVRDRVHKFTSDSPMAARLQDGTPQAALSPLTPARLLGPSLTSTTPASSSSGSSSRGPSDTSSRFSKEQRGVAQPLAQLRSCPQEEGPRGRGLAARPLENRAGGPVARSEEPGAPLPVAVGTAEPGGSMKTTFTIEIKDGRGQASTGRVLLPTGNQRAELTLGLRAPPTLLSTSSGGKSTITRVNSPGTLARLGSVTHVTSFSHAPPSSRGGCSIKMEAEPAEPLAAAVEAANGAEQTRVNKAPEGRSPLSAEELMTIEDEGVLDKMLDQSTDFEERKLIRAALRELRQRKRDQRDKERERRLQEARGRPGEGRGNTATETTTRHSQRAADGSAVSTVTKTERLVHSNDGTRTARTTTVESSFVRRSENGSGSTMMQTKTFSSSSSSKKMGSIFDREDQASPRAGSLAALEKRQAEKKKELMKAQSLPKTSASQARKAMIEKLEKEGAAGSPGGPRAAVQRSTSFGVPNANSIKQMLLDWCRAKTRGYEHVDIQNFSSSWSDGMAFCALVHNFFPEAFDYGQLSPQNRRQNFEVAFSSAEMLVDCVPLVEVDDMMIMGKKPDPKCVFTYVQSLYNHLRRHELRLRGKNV

Assays:
Test in all cases: log2 fold change, soluble protein after heating vs DMSO (PISA); higher = thermal stabilisation; K562 cells, 10 uM, 30 min; active = over 0.2 and 3.5 SD of the protein, either way, in both replicates (recomputed)
[1] = compound: C1COCCN1CCN2C3=CC=CC=C3N=C2NC(=O)C4=CC(=CC=C4)[N+](=O)[O-] [IRAK-1-4 Inhibitor I]
How it was run: (§1)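 For each measurement, 10 μM compound was applied for 30 min to K562 cells at 2×10^6 cells/mL. Aliquots were heated for 3 min across 48°C-58°C, pooled, and extracted in PBS with 0.5% NP-40 at 4°C; the supernatant after 21,000xg for 90 min was soluble protein. This was quantified by TMTpro 16plex LC-MS/MS with channel sums equalised, and thermal stability was reported relative to control samples from duplicates, on a log2 fold-change scale.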

[2] = compound: CC(=O)c1cnc2ccc(-c3cc(Cl)c(O)c(Cl)c3)nc2c1N[C@H]1CC[C@H](CN(C)C)CC1
How it was run: as §1

[3] = compound: CC(C)C1=C2N=C(C=C(N2N=C1)NCC3=CC=CC=C3)NCCCCCCN
How it was run: as §1

[4] = compound: CC(C)N(C[C@H]1O[C@@H](n2cnc3c(N)ncnc32)[C@H](O)[C@@H]1O)[C@H]1C[C@@H](CCc2nc3cc(C(C)(C)C)ccc3[nH]2)C1 [pinometostat]
How it was run: as §1

[5] = compound: CC1=C(C2=C(C=C1)C(=O)C3=CC=CC=C3N2CCCN)C
How it was run: as §1

[6] = compound: C=CC(=O)N1CCC[C@@H](n2nc(-c3ccc(Oc4ccccc4)cc3)c3c(N)ncnc32)C1 [ibrutinib]
How it was run: as §1

[7] = compound: CC(C)(O)CC(=O)NCCn1ccc2ncnc(Nc3ccc(Oc4cccc(C(F)(F)F)c4)c(Cl)c3)c21
How it was run: as §1

[8] = compound: CC1=C(C(CC(=O)N1)C2=CC=C(C=C2)C(F)(F)F)C(=O)NC3=C(C=C4C(=C3)C=NN4)F
How it was run: as §1

[9] = compound: CC(C)(C)Cn1c(N)nc2ccc(-c3[nH]c(C(C)(C)C)nc3-c3ccc(F)cc3)nc21 [ralimetinib]
How it was run: as §1

[10] = compound: CC(C)C[C@@H](C=O)NC(=O)[C@H](CC(C)C)NC(=O)[C@H](CC(C)C)NC(=O)OCc1ccccc1
How it was run: as §1

Measured: log2 fold change

SMARCD2 (UniProt Q92925)
inactive: [1] -0.116 | [2] -0.372 | [3] -0.302 | [4] 0.069 | [5] 0.076

SNX2 isoform 2 (UniProt O60749)
inactive: [1] 0.091 | [6] 0.151 | [2] -0.039 | [7] -0.377 | [4] -0.094

SLC9A1 (UniProt P19634)
inactive: [1] -0.017 | [6] -0.001 | [2] 0.018 | [7] -0.04 | [3] -0.004 | [4] 0.048 | [8] -0.052 | [5] -0.1

SNX6 (UniProt Q9UNH7)
inactive: [1] 0.012 | [6] 0.035 | [2] -0.233 | [9] -0.035 | [7] -0.249 | [3] -0.234 | [10] 0.013 | [4] 0.048 | [5] -0.013

SLPI (UniProt P03973)
inactive: [1] -0.001 | [9] 0.084 | [10] -0.557 | [4] -0.463

SMG7 isoform 4 (UniProt Q92540)
inactive: [1] -0.108 | [6] -0.108 | [9] 0.152 | [7] 0.06 | [3] -0.117 | [10] 0.012 | [4] 0.07 | [8] -0.086 | [5] 0.056

SNAPC5 (UniProt O75971)
inactive: [1] -0.046 | [6] -0.043 | [2] 0.006 | [7] -0.012 | [3] 0.076 | [4] -0.031 | [8] 0.242 | [5] 0.132

SMIM1 (UniProt B2RUZ4)
inactive: [1] 0.142 | [6] -0.139 | [2] 0.151 | [3] 0.041 | [4] -0.02 | [8] 0.07 | [5] -0.077

SMPD1 (UniProt P17405)
inactive: [1] -0.169 | [2] 0.055 | [9] -0.141 | [10] -0.045 | [4] 0.041

SMARCD1 (UniProt Q96GM5)
inactive: [3] -0.057

SNX30 (UniProt Q5VWJ9)
inactive: [7] -0.009

SMYD3 (UniProt Q9H7B4)
inactive: [6] -0.08 | [2] -0.01 | [9] 0.276 | [7] 0.205 | [3] -0.385 | [10] 0.136 | [8] 0.003 | [5] 0.131

SMG6 (UniProt Q86US8)
inactive: [6] 0.179 | [7] -0.206 | [8] 0.18 | [5] 0.136

SNTB2 (UniProt Q13425)
inactive: [6] -0.116 | [2] -0.106 | [9] 0.195 | [7] -0.053 | [10] 0.152 | [8] -0.056 | [5] 0.15

SMIM20 isoform 2 (UniProt Q8N5G0)
inactive: [6] -0.01 | [2] -0.023 | [9] -0.056 | [7] -0.061 | [3] 0.024 | [10] 0.006 | [5] -0.058

SP6 (UniProt Q3SY56)
inactive: [6] -0.036 | [2] 0.061 | [9] -0.321 | [7] 0.081 | [3] 0.051 | [10] 0.191 | [8] -0.103 | [5] -0.04

SMARCAL1 (UniProt Q9NZC9)
inactive: [9] -0.085 | [3] -0.172 | [10] 0.173

SMARCB1 (UniProt Q12824)
inactive: [1] -0.082 | [4] 0.179 | [5] -0.031

SNRK (UniProt Q9NRH2)
inactive: [1] -0.126 | [4] -0.087

SMAGP (UniProt Q0VAQ4)
inactive: [6] 0.005 | [2] -0.366 | [7] -0.235 | [8] 0.074 | [5] 0.43

SOX6 (UniProt P35712)
inactive: [9] -0.028 | [10] 0.207

Reprinted from the entries so far (2 entries):
SNAPC5 (UniProt O75971)
inactive: [1] -0.046 | [6] -0.043 | [2] 0.006 | [7] -0.012 | [3] 0.076 | [4] -0.031 | [8] 0.242 | [5] 0.132

SMIM1 (UniProt B2RUZ4)
inactive: [1] 0.142 | [6] -0.139 | [2] 0.151 | [3] 0.041 | [4] -0.02 | [8] 0.07 | [5] -0.077

Following part

SNAP47 (UniProt Q5SQN1)
inactive: [7] 0.037 | [3] -0.186

SMUG1 (UniProt Q53HV7)
inactive: [8] 0.001

SMIM29 (UniProt Q86T20)
inactive: [3] -0.024

SMAD3 (UniProt P84022)
inactive: [2] -0.009 | [9] -0.066 | [10] 0.175 | [5] 0.009

SMR3B (UniProt P02814)
inactive: [6] -0.153 | [8] -0.299

SMIM10L1 (UniProt P0DMW3)
inactive: [3] -0.288

SNRPC (UniProt Q5TAL2)
inactive: [6] 0.02 | [2] -0.025 | [9] 0.114 | [7] -0.183 | [3] 0.266 | [10] 0.082 | [8] -0.052 | [5] 0.013

SLC9A6 isoform 3 (UniProt Q92581)
inactive: [6] -0.012 | [2] 0.004 | [3] 0.051 | [5] 0.075

SOD3 (UniProt P08294)
inactive: [2] 0.087 | [5] 0.175

SMIM19 (UniProt Q96E16)
inactive: [2] 0.228 | [9] 0 | [10] -0.104 | [5] -0.168

SMIM13 (UniProt P0DJ93)
inactive: [6] -0.088 | [9] -0.114 | [10] -0.201 | [8] 0.058

SNX19 (UniProt Q92543)
inactive: [1] -0.059 | [7] -0.074 | [3] -0.062 | [4] 0.114

SLC9A8 isoform 2 (UniProt Q9Y2E8)
inactive: [6] -0.048 | [2] 0.006 | [7] -0.005 | [3] -0.029 | [8] 0.012 | [5] 0.003

SORBS3 (UniProt O60504)
inactive: [6] 0.13 | [7] 0.083 | [3] -0.057 | [8] -0.172

SLC9B2 (UniProt Q86UD5)
inactive: [7] 0.089

SNX13 (UniProt Q9Y5W8)
inactive: [6] 0.001 | [9] 0.12 | [7] -0.105 | [3] -0.31 | [10] -0.02

SNAP23 isoform 2 (UniProt O00161)
inactive: [1] 0.112 | [7] 0.14 | [3] 0.401 | [4] -0.232 | [5] -0.168

SNX4 (UniProt O95219)
inactive: [9] 0.13 | [10] 0.116

SMPDL3A (UniProt Q92484)
inactive: [7] -0.011 | [5] 0.242

SMARCA2 (UniProt P51531)
inactive: [6] -0.174 | [2] 0.023 | [9] -0.022 | [3] 0.142 | [10] 0.077 | [8] 0.053

SMTN isoform 6 (UniProt P53814)
inactive: [7] 0.06 | [3] 0.141 | [5] -0.072
